Laboratory results taken from publication PMC8876890, “Engineering Chimeras by Fusing Plant Receptor-like Kinase EMS1 and BRI1 Reveals the Two Receptors’ Structural Specificity and Molecular Mechanisms” (International Journal of Molecular Sciences, 2022).
Results are given in words; binding and its absence hold for the method and conditions named. Binding seen in cells or lysates may run through a third protein. Some entries that bind do so weakly or less than the wild type. Where a sequence is shown, tags or fusion partners need not be part of it.

Chains of the proteins cited; added tags and fusions are not shown.
UniProt Q8W4L3: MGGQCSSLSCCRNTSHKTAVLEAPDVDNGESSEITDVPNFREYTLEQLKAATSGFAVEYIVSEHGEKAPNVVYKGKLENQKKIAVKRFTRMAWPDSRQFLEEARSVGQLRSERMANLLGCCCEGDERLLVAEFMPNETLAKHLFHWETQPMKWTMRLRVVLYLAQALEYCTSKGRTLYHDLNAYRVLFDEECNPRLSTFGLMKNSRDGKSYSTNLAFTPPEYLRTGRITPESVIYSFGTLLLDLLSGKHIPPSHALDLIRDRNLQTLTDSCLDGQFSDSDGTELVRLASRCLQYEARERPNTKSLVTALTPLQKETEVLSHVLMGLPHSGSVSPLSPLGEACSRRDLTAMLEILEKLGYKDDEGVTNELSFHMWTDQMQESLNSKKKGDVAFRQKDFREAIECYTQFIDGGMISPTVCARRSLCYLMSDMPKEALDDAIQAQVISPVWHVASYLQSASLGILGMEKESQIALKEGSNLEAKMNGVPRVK
UniProt Q944A7: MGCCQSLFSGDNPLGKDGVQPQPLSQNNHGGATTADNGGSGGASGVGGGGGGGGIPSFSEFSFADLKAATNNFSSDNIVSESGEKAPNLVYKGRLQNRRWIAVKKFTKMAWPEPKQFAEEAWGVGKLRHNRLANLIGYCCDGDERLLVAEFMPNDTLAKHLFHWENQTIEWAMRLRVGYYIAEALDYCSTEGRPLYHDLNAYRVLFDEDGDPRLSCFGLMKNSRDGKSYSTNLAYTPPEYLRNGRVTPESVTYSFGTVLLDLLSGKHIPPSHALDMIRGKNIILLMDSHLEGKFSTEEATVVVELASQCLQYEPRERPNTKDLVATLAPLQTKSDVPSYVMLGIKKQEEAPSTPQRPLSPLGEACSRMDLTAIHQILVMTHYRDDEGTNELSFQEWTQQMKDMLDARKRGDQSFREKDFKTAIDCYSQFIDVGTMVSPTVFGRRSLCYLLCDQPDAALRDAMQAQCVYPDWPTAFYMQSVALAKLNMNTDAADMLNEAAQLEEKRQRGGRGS

T1: EMS1-nYFP (Arabidopsis thaliana) (UniProt Q9LYN8)
T1 sequence: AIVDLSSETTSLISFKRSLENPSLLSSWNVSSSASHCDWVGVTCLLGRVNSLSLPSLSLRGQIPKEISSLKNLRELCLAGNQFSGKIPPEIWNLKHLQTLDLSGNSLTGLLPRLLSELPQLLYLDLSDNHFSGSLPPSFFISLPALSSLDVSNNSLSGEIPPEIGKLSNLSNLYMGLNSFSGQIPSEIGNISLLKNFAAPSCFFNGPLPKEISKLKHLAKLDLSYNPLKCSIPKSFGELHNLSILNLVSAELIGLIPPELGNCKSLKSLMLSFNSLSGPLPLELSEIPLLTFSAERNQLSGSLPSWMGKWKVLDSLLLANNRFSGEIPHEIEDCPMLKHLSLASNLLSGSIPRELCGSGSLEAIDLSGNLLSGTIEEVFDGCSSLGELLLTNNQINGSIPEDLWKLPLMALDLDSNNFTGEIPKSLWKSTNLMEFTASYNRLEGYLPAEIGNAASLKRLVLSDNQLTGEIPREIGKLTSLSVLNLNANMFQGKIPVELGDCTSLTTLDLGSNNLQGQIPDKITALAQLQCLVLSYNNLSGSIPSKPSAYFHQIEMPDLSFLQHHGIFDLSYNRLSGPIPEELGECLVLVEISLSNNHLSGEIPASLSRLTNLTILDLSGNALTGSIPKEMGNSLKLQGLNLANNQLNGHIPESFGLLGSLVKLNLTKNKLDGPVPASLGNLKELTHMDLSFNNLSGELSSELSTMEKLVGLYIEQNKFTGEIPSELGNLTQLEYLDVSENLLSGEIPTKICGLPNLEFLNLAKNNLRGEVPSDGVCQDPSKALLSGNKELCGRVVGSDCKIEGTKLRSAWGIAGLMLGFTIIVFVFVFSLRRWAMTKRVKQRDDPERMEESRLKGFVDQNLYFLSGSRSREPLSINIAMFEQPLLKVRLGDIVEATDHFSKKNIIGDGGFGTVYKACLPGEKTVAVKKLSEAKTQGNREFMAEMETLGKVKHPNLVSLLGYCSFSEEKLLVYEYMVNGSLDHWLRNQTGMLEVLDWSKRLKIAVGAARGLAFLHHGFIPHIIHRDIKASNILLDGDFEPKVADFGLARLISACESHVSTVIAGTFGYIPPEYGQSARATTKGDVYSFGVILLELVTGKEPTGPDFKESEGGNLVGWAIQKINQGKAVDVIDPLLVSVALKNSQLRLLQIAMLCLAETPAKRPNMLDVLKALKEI


Assays:
[1] = biological target: T1, EMS1-nYFP (Arabidopsis thaliana); test: split reporter; BiFC in N. benthamiana leaf epidermal cells; nYFP and cYFP fusions co-expressed by Agrobacterium infiltration with p19; confocal microscopy after 36-48 h
BSK3-FLAG = BSK3-FLAG (UniProt Q8W4L3); test: co-IP; total protein of transgenic Arabidopsis Col-0 seedlings (10 mM HEPES pH 7.5, 100 mM NaCl, 1 mM EDTA, 10% glycerol, 0.5% Triton X-100); precipitated with anti-FLAG M2 affinity gel, blot with anti-GFP and anti-FLAG
BSK1-FLAG = BSK1-FLAG (UniProt Q944A7); test: as above

binding [1] | binding (BSK3-FLAG) | binding (BSK1-FLAG) | Molecule
binds |  |  | BSK3-cYFP (from UniProt Q8W4L3 1-489)
binds |  |  | BSK1-cYFP (from UniProt Q944A7 1-512)
 | binds | binds | EMS1-GFP (receptor, UniProt Q9LYN8 19-1192) AIVDLSSETTSLISFKRSLENPSLLSSWNVSSSASHCDWVGVTCLLGRVNSLSLPSLSLRGQIPKEISSLKNLRELCLAGNQFSGKIPPEIWNLKHLQTLDLSGNSLTGLLPRLLSELPQLLYLDLSDNHFSGSLPPSFFISLPALSSLDVSNNSLSGEIPPEIGKLSNLSNLYMGLNSFSGQIPSEIGNISLLKNFAAPSCFFNGPLPKEISKLKHLAKLDLSYNPLKCSIPKSFGELHNLSILNLVSAELIGLIPPELGNCKSLKSLMLSFNSLSGPLPLELSEIPLLTFSAERNQLSGSLPSWMGKWKVLDSLLLANNRFSGEIPHEIEDCPMLKHLSLASNLLSGSIPRELCGSGSLEAIDLSGNLLSGTIEEVFDGCSSLGELLLTNNQINGSIPEDLWKLPLMALDLDSNNFTGEIPKSLWKSTNLMEFTASYNRLEGYLPAEIGNAASLKRLVLSDNQLTGEIPREIGKLTSLSVLNLNANMFQGKIPVELGDCTSLTTLDLGSNNLQGQIPDKITALAQLQCLVLSYNNLSGSIPSKPSAYFHQIEMPDLSFLQHHGIFDLSYNRLSGPIPEELGECLVLVEISLSNNHLSGEIPASLSRLTNLTILDLSGNALTGSIPKEMGNSLKLQGLNLANNQLNGHIPESFGLLGSLVKLNLTKNKLDGPVPASLGNLKELTHMDLSFNNLSGELSSELSTMEKLVGLYIEQNKFTGEIPSELGNLTQLEYLDVSENLLSGEIPTKICGLPNLEFLNLAKNNLRGEVPSDGVCQDPSKALLSGNKELCGRVVGSDCKIEGTKLRSAWGIAGLMLGFTIIVFVFVFSLRRWAMTKRVKQRDDPERMEESRLKGFVDQNLYFLSGSRSREPLSINIAMFEQPLLKVRLGDIVEATDHFSKKNIIGDGGFGTVYKACLPGEKTVAVKKLSEAKTQGNREFMAEMETLGKVKHPNLVSLLGYCSFSEEKLLVYEYMVNGSLDHWLRNQTGMLEVLDWSKRLKIAVGAARGLAFLHHGFIPHIIHRDIKASNILLDGDFEPKVADFGLARLISACESHVSTVIAGTFGYIPPEYGQSARATTKGDVYSFGVILLELVTGKEPTGPDFKESEGGNLVGWAIQKINQGKAVDVIDPLLVSVALKNSQLRLLQIAMLCLAETPAKRPNMLDVLKALKEI
